Test results from paper PMC12509982.
These are yes or no findings as the source states them, for the method shown. In cells and extracts the contact can be indirect. Where a sequence is shown, tags or fusion partners need not be part of it.

Biological target: T1, FLAG-DCLK3 (Doublecortin-like kinase 3) (human) (UniProt Q9C098)
T1 sequence: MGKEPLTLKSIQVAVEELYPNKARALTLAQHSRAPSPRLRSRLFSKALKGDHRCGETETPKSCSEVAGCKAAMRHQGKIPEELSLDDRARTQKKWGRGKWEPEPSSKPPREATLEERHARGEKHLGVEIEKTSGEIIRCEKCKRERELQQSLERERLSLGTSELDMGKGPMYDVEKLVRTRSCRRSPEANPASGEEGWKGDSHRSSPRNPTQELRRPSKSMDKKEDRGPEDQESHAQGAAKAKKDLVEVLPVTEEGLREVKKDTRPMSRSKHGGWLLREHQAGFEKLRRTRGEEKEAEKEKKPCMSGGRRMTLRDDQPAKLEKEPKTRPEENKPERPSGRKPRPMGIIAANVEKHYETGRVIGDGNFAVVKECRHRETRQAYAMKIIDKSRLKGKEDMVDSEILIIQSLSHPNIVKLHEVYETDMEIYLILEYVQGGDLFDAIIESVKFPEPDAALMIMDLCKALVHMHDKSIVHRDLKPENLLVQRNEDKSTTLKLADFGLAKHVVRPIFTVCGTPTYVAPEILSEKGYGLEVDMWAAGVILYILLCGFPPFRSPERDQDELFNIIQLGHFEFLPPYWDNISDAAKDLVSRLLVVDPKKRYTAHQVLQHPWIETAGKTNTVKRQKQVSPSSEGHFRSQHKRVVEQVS
Assay: co-IP; HEK293T co-transfected with FLAG-DCLK3 and GFP-Tau; lysed in RIPA buffer after 48 h; anti-FLAG M2 magnetic or agarose beads; washed three times in RIPA buffer; blots with anti-FLAG, anti-GFP and anti-pS262 Tau

binding: no binding
Substance: GFP-Tau, unphosphorylated
